# Measurements published in the supplement of paper PMC10727501.
# This is one part of the list. This data set is noisy: repeats of one test often differ as much as different tests do.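 Free-swimming zebrafish larvae were scored for O-bend response probability to dark flashes (naive: first five; training: remaining flashes of four 60-flash blocks; test: later 60-flash block) and for turning toward alternating leftward/rightward LED motion (OMR). Six treated larvae were compared with sixty 0.1% DMSO controls; |SSMD|≥2 defined a hit.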
# Test system: Danio rerio larvae (5 dpf, TLF)
# Assay: Prob-Train (SSMD vs DMSO vehicle); higher = higher than vehicle (e.g. higher dark-flash O-bend response probability, or better optomotor performance)
# Conditions: 10 µM; pre-incubation: 30-90 min
row,Compound,Prob-Train
1,O=C(C1CCCCC1)N1CC(=O)N2CCc3ccccc3C2C1 (centres undefined) [Praziquantel],0.154
2,CN1CCC(=C2c3ccccc3CCc3sccc32)CC1.O=C(O)CC(O)C(=O)O [Pizotifen Malate],-1.53
3,CC(C)c1c(C(=O)Nc2ccccc2)c(-c2ccccc2)c(-c2ccc(F)cc2)n1CC[C@@H](O)C[C@@H](O)CC(=O)[O-].CC(C)c1c(C(=O)Nc2ccccc2)c(-c2ccccc2)c(-c2ccc(F)cc2)n1CC[C@@H](O)C[C@@H](O)CC(=O)[O-].[Ca+2] [Atorvastatin Calcium],0.0181
4,O=C(O)[C@H](O)[C@@H](O)C(=O)O.c1cnc2cc3c(cc2n1)C1CNCC3C1 [Varenicline Tartrate],-0.0872
5,C[C@H](N[C@@H](CCc1ccccc1)C(=O)O)C(=O)N1CCC[C@H]1C(=O)O.O.O [Enalaprilat Dihydrate],0.086
6,CC(C)(C)NS(=O)(=O)c1cncc(-c2cc(F)c3nc(N)nn3c2)c1,0.504
7,COCCCN1CCC(NC(=O)c2cc(Cl)c(N)c3c2OCC3)CC1.O=C(O)CCC(=O)O [Prucalopride Succinat],-0.784
8,O=C(NCCCNc1nc(Nc2cccc(NC(=O)N3CCCC3)c2)ncc1I)c1cccs1,-0.245
9,Nc1c(CC(=O)[O-])cccc1C(=O)c1ccccc1.O.[Na+] [Amfenac Sodium Monohydrate],0.112
